Test system: hair cells of the neuromasts within the lateral line organ
Test: In vivo labeling of neuromasts in zebrafish larvae
Parameters: species or system zebrafish (Danio rerio)
Settings: for background fluorescence: 4–6 dpf larvae
Method: For the neuromast labeling experiments, wild-type 4–6 days post fertilization (dpf) zebrafish larvae were incubated in 200 μL of E3 medium containing different doses of the SiR probes (500–5000 nM), 2.5 μM 4-(4-diethylaminostyryl)-1-methyl-pyridinium-iodid (DiAsp, Sigma, D3418), which specifically labels hair cells in the lateral line in 0.5% DMSO for 30 min (35). Next, washing and anesthesia were achieved by placing the larvae in a 35 mm imaging dish (MolBiTec, Imaging dish 1.5) which contained 500 μL of E3 medium with 168 mg/L MS-222 (Tricaine Mehanesulfonate, Sigma) for 10 min. After removing the solution, fish were side-embedded in the imaging dish using 500 μL of 0.75% low-melting temperature agarose (Sigma, A4018). Wide-field imaging was done using the Zeiss Axio Observer fluorescence microscope (LD A-Plan 10× objective, NA = 0.25), and confocal imaging was done using a Zeiss LSM 800 confocal fluorescence microscope (LD LCI Plan-Apochromat 25× objective, NA = 0.8).

| Compound | background fluorescence [AU] | fold higher background fluorescence than EvoSiR probes (zebrafish, in vivo) |
| --- | --- | --- |
| Cc1cc(C(=O)NCCCCCCNC(=O)Cc2ccc(N3CC[C@H](N[C@H](C)c4cccc5ccccc45)C3)cc2)ccc1C1=C2C=CC(=[N+](C)C)C=C2[Si](C)(C)c2cc(N(C)C)ccc21 [EvoSiR6] | 1715 ± 580 | – |
| Cc1cc(C(=O)NCCCCN)ccc1C1=C2C=CC(=[N+](C)C)C=C2[Si](C)(C)c2cc(N(C)C)ccc21 [SiR (4)] | 5298 ± 2367 | approximately 4 fold |
| Cc1cc(C(=O)NCCCCNC(=O)Cc2ccc(N3CC[C@H](N[C@H](C)c4cccc5ccccc45)C3)cc2)ccc1C1=C2C=CC(=[N+](C)C)C=C2[Si](C)(C)c2cc(N(C)C)ccc21 [EvoSiR4] | 1339 ± 803 | – |

— paper PMC11091967, “Silicon-Rhodamine Functionalized Evocalcet Probes Potently and Selectively Label Calcium Sensing Receptors In Vitro, In Vivo, and Ex Vivo” (ACS Pharmacology & Translational Science, 2024)
